# Measured values reported in PMC10516600.
# Protein sequences, listed by entry. Tags and fused reporters are not part of them.
# UniProt P62491: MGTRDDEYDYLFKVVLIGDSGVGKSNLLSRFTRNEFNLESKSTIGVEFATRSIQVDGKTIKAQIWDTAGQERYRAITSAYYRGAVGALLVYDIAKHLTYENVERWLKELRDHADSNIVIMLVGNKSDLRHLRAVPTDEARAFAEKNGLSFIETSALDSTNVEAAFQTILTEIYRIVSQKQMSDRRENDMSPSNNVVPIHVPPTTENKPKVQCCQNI
# UniProt Q15286: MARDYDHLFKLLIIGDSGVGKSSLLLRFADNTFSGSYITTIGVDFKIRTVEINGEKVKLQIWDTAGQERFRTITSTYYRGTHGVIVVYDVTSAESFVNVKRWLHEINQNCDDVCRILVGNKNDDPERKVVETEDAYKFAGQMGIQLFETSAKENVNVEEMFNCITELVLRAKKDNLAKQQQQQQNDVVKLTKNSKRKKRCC
# UniProt Q9NRH3: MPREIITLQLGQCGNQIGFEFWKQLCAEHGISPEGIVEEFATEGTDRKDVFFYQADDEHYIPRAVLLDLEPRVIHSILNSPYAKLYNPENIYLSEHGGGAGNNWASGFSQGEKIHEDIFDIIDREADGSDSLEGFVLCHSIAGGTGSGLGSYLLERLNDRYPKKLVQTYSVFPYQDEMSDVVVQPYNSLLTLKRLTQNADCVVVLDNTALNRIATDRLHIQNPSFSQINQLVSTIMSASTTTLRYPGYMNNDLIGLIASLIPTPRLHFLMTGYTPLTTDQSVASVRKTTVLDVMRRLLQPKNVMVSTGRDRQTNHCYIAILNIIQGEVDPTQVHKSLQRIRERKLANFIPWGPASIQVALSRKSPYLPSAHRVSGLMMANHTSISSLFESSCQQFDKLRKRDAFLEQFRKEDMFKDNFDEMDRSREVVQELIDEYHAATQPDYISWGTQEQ
# UniProt Q9UL25: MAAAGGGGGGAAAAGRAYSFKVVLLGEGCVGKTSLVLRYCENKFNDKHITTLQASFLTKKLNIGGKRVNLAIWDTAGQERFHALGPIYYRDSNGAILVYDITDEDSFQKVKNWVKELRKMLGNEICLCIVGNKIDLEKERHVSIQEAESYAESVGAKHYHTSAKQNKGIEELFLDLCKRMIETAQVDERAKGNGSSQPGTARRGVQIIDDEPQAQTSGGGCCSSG
# UniProt P61026: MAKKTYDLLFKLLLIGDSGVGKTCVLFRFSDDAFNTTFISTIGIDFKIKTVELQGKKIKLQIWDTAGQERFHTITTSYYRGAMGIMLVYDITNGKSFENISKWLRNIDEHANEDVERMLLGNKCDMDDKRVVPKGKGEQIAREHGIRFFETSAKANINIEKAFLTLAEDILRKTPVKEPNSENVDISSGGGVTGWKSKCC
# UniProt P61019: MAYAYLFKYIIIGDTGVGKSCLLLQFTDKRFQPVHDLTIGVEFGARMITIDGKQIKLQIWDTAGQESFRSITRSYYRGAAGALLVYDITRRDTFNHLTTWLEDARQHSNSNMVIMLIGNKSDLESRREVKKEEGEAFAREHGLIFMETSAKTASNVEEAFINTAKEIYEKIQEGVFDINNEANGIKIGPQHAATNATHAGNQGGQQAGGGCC
# UniProt P20340: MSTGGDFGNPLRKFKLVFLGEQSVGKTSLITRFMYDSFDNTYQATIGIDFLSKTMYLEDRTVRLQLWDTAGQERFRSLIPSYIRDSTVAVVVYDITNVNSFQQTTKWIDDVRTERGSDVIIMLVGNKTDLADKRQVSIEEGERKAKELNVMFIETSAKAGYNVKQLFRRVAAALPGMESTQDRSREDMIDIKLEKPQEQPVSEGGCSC
# UniProt Q9H0U4: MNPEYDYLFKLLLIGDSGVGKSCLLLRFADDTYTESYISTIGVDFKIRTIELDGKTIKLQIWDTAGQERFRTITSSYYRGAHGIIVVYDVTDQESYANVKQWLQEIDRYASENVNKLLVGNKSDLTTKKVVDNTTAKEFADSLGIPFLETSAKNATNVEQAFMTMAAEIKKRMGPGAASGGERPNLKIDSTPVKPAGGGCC
# UniProt P62820: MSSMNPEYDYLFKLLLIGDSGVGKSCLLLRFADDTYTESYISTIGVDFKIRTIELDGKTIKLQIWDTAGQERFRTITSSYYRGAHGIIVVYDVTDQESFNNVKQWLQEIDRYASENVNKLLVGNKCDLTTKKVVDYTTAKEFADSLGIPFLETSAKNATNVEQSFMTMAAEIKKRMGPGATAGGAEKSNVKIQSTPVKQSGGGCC
# UniProt Q8TEP8: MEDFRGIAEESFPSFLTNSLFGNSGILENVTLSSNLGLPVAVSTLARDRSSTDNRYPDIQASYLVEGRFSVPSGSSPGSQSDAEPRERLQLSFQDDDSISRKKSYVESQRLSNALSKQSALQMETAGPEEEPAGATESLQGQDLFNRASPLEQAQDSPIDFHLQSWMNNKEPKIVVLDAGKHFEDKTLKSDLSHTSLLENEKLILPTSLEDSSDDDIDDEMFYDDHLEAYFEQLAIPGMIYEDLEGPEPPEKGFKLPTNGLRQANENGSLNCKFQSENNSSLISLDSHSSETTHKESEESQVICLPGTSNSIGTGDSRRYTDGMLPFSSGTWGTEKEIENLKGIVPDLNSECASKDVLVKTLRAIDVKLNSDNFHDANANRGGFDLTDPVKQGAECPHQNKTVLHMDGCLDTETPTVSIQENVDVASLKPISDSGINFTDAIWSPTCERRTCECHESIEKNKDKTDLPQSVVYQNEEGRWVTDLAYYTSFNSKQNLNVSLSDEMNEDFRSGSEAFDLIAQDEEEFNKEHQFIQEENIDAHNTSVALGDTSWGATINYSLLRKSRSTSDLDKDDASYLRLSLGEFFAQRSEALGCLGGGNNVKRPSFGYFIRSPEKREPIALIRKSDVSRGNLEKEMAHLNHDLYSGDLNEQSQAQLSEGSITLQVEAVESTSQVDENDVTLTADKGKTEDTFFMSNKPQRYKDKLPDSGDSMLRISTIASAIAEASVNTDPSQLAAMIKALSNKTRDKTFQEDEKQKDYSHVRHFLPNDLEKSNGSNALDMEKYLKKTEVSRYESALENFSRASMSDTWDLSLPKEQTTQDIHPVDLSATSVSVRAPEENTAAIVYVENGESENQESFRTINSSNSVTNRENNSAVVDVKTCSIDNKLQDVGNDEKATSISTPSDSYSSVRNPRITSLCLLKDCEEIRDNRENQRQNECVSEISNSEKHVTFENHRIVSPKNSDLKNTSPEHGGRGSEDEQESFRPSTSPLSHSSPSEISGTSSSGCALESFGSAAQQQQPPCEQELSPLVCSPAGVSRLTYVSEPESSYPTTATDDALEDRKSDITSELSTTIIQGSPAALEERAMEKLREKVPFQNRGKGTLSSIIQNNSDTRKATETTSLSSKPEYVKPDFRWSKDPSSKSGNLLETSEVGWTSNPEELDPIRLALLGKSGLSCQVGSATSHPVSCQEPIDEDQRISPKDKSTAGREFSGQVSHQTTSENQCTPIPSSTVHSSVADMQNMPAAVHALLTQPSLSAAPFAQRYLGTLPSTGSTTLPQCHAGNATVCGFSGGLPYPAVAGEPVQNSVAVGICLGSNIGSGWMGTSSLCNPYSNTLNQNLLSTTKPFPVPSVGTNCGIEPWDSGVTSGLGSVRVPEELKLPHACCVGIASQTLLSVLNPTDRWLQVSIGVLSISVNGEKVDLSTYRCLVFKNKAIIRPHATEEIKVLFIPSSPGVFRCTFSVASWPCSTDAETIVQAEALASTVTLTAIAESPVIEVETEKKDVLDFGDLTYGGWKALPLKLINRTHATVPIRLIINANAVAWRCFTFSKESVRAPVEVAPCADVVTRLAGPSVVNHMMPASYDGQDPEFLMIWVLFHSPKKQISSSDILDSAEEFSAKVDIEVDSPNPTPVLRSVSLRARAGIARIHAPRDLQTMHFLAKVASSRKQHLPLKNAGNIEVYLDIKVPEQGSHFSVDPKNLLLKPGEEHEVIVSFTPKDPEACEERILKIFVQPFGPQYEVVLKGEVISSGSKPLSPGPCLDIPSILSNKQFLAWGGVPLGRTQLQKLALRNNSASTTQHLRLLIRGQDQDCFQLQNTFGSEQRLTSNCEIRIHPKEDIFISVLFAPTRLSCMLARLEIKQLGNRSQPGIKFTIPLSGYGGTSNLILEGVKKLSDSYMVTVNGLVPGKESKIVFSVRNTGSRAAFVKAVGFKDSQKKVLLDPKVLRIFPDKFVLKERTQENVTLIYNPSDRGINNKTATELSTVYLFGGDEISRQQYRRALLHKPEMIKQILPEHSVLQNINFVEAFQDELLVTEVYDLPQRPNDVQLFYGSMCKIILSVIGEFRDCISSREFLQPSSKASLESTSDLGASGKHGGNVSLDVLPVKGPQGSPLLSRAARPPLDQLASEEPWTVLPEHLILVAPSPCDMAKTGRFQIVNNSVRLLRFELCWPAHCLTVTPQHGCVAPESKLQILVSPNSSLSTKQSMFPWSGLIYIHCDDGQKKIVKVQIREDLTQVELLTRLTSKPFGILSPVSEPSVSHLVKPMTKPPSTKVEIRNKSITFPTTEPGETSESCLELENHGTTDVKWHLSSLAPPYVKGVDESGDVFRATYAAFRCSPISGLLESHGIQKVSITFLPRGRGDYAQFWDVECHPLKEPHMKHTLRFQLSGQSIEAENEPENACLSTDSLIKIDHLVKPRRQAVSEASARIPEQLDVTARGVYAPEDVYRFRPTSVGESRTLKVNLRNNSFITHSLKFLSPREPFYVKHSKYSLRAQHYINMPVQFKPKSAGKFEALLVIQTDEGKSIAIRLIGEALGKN
# UniProt P23258: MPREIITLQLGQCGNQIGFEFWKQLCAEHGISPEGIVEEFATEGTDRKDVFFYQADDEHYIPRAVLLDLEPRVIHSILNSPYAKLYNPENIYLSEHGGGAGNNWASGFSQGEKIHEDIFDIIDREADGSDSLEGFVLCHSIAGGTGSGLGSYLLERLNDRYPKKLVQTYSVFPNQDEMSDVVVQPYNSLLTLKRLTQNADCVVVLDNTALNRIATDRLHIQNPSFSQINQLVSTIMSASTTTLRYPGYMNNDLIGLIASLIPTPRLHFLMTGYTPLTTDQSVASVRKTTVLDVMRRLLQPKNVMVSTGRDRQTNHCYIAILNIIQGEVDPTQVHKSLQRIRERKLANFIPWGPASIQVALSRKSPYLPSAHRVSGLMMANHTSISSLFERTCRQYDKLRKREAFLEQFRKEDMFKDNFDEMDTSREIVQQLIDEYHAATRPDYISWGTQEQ
# UniProt P51148: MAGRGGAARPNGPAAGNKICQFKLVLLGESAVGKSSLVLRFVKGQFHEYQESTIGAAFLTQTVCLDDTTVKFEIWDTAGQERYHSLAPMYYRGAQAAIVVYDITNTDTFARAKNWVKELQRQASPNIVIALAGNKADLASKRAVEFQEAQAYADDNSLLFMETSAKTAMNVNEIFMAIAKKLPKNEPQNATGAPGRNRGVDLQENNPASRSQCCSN
# No constants are given. Whether binding was seen depends on the method and setting. In cells and extracts the contact can be indirect. Here binding means that the protein was enriched with, or labelled near, the bait; the list need not be complete. Where a sequence is shown, tags or fusion partners need not be part of it.
# T1: exogenous CRB3b (CRB3-GFP) stably expressed in MCF10A cells (human) (UniProt Q9BUF7)
# T1 sequence: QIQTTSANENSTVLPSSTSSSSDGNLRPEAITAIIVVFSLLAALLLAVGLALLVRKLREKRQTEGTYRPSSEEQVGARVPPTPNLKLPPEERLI
# Target: T1, exogenous CRB3b (CRB3-GFP) stably expressed in MCF10A cells (human)
# Experiment: affinity purification with mass spectrometry; co-IP tandem mass spectrometry with tagged exogenous CRB3b as bait in MCF10A cells; LC-MS/MS on Q Exactive Plus
row,binding,Molecule
1,binds,Rab11A (from UniProt P62491 1-216)
2,binds,Rab35 (from UniProt Q15286 1-201)
3,binds,"CEP290 (endogenous, MCF10A cells) (from UniProt O15078 1-2479)"
4,binds,CEP295 (from UniProt Q9C0D2 1-2601)
5,binds,CENP-E (from UniProt Q02224 1-2701)
6,binds,tubulin gamma-2 (from UniProt Q9NRH3 1-451)
7,binds,Rab21 (from UniProt Q9UL25 1-225)
8,binds,Rab10 (from UniProt P61026 1-200)
9,binds,"CEP162 (protein, UniProt Q5TB80 1-1403) MANCSQEELDEEFEQFMKELSDDSFENSDKTARQSKKEMKKKDTVPWWITEDDFKDDGLLGTNVSYLKTKKTSQPVMEIEEESAEKIQFLKSSGTSLLSTDSLETNELVVSELNHSSLGVGLDTLEEQEEKEQFFARLEKGLTSSIDYSRLNKELDSNDSTHFKALHSNQANAELTDDEHENESKHEELAENYSDDFEDEYVGAPLTTKDEEMPSKENSKSEKISVPKQEEEKTGMLANVVLLDSLDSVAEVNLDEQDKITPKPRCLPEMTENEMTGTGVSYGQSSSDVEALHQAYCHIAHSLGDEDKQKIESNTVEDIKSSVKGHPQENEENSKNISTMESDLPTVEELMKPIRIDSFGISGFDLQPVSSEKVAERKETEFFSSLPLKMNPNILSQDSQHVNLFFDKNDENVILQKTTNESMENSCPQVTEVTATEEHVDKMYLNILRKKITVNSSSLSQDDKINKTYRSQLSSEEEGAVMGKQVPYKKARSAPPLLKRKPQSGLYASVRSSGYGKPSSPLKMFSTLEKKTSEDIIKSKNLRSISTSNQPRKKEILSGTKLIKPAALDKPAHKTESCLSTRKKSENPTETDSCIQFQTDSLGYCGENKEKKLLMFKRVQEAEDKWRGAQALIEQIKATFSEKEKELENKLEELKKQQEKELFKLNQDNYILQAKLSSFEETNKKQRWLHFGEAADPVTGEKLKQIQKEIQEQETLLQGYQQENERLYNQVKDLQEQNKKNEERMFKENQSLFSEVASLKEQMHKSRFLSQVVEDSEPTRNQNFTDLLAELRMAQKEKDSLLEDIKRLKQDKQALEVDFEKMKKERDQAKDQIAYVTGEKLYEIKILEETHKQEISRLQKRLQWYAENQELLDKDALRLREANEEIEKLKLEIEKLKAESGNPSIRQKIRLKDKAADAKKIQDLERQVKEMEGILKRRYPNSLPALILAASAAGDTVDKNTVEFMEKRIKKLEADLEGKDEDAKKSLRTMEQQFQKMKIQYEQRLEQQEQLLACKLNQHDSPRIKALEKELDDIKEAHQITVRNLEAEIDVLKHQNAELDVKKNDKDDEDFQSIEFQVEQAHAKAKLVRLNEELAAKKREIQDLSKTVERLQKDRRMMLSNQNSKGREEMSAKRAKKDVLHSSKGNANSFPGTLDSKLYQPHTFTDSHVSEVLQENYRLKNELEGLISEKNELKMKSEAVMNQFENSMRRVKEDTAAHIASLKASHQREIEKLLCQNAVENSSSKVAELNRKIATQEVLIRHFQSQVNELQSKQESLVVSEVREEILQKEITKLLEELREAKENHTPEMKHFVGLEKKIKQMEMRHAQREQELQQIIQQTHQVVETEQNKEVEKWKRLAQLKNRELEKFRTELDSILDVLRELHRQGVVVPVAFADEMNAPEY"
10,binds,"Rab32 (protein, UniProt Q13637 1-225) MAGGGAGDPGLGAAAAPAPETREHLFKVLVIGELGVGKTSIIKRYVHQLFSQHYRATIGVDFALKVLNWDSRTLVRLQLWDIAGQERFGNMTRVYYKEAVGAFVVFDISRSSTFEAVLKWKSDLDSKVHLPNGSPIPAVLLANKCDQNKDSSQSPSQVDQFCKEHGFAGWFETSAKDNINIEEAARFLVEKILVNHQSFPNEENDVDKIKLDQETLRAENKSQCC"

# Further lines, the molecule ahead of its results:
row,Molecule,binding
1,Rab2A (from UniProt P61019 1-212),binds
2,Rab6A (from UniProt P20340 1-208),binds
3,Rab1B (from UniProt Q9H0U4 1-201),binds
4,Rab1A (from UniProt P62820 1-205),binds
5,CEP192 (from UniProt Q8TEP8 1-2537),binds
6,tubulin gamma-1 (from UniProt P23258 1-451),binds
7,Rab5C (from UniProt P51148 1-216),binds
8,"Rab38 (protein, UniProt P57729 1-211) MQAPHKEHLYKLLVIGDLGVGKTSIIKRYVHQNFSSHYRATIGVDFALKVLHWDPETVVRLQLWDIAGQERFGNMTRVYYREAMGAFIVFDVTRPATFEAVAKWKNDLDSKLSLPNGKPVSVVLLANKCDQGKDVLMNNGLKMDQFCKEHGFVGWFETSAKENINIDEASRCLVKHILANECDLMESIEPDVVKPHLTSTKVASCSGCAKS",binds
9,"Rab5B (protein, UniProt P61020 1-215) MTSRSTARPNGQPQASKICQFKLVLLGESAVGKSSLVLRFVKGQFHEYQESTIGAAFLTQSVCLDDTTVKFEIWDTAGQERYHSLAPMYYRGAQAAIVVYDITNQETFARAKTWVKELQRQASPSIVIALAGNKADLANKRMVEYEEAQAYADDNSLLFMETSAKTAMNVNDLFLAIAKKLPKSEPQNLGGAAGRSRGVDLHEQSQQNKSQCCSN",binds
